For at least one entry, the source does not settle the construct or the ends of the probe. Weaker means in comparison with the reference protein, sequence or condition of that experiment. For some assays here: At least one verdict was read from the data and is not stated in words by the source.
What was measured:
RAD51 WT (Homo sapiens) = RAD51 WT (Homo sapiens) (UniProt Q06609); assay: SPR; conditions: Ca2+, SPR (Biacore T200, streptavidin CM5): 150 mM KCl, 20 mM Hepes pH 7.5, 2 mM DTT, 5 mg/ml BSA, 2.5 mM ATP, 10 mM CaCl2, 10% glycerol, 37 C, recombinant protein, protein details: untagged
[1] = molecular target: RAD51 F86E (Homo sapiens) (UniProt Q06609); assay: SPR; conditions: 30 uM F86E, ATP, Ca2+; SPR (Biacore T200, streptavidin CM5): 150 mM KCl, 20 mM Hepes pH 7.5, 2 mM DTT, 5 mg/ml BSA, 2.5 mM ATP, 10 mM CaCl2, 10% glycerol, 37 C; recombinant protein; protein details: untagged; label: 5' Biotin (C6); single-stranded DNA

Sequences of proteins named here, by UniProt entry; tags and fusion partners are left off.
UniProt Q06609, whole entry: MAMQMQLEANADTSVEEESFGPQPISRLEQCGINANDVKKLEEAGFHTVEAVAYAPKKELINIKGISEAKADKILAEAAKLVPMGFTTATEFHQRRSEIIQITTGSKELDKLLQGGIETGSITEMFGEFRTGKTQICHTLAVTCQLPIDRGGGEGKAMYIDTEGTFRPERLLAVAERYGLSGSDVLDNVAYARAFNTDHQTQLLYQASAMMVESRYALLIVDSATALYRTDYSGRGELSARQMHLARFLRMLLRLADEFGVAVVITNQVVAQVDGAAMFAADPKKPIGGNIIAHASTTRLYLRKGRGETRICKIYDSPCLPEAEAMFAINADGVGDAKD
UniProt Q06609, whole entry F86E: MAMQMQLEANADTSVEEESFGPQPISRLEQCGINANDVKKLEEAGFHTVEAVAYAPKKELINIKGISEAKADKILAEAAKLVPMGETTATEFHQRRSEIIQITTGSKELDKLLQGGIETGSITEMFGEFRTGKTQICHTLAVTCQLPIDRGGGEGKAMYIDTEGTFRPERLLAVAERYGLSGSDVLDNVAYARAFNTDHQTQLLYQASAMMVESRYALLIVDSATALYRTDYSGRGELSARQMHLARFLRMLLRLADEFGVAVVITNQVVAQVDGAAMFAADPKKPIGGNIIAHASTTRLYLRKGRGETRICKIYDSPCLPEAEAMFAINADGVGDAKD

AAAAAAAAAAAAAAAAAAAAAAAAAAAAAAAAAAAAAAAAAAAAAAAAAA [ssDNA dA-50]
binding result (RAD51 WT (Homo sapiens); ATP, very slow association, comparable to dN-50p, label: 5' Biotin (C6), single-stranded DNA): binds more weakly | binding result [1]: binds more weakly

CGTCGATGAGCAGT [ssDNA dN-14]
binding result (RAD51 WT (Homo sapiens); 3 uM RAD51, ATP, slow association, moderate dissociation, label: 3' Biotin-TEG, single-stranded DNA): binds more weakly

CTGACTGC (double strand) [dsDNA dN-8p]
binding result (RAD51 WT (Homo sapiens); 3 uM RAD51, ATP, slow association, moderate dissociation, two hexaethylene glycol linkers join 3' end of strand 1 to 5' end of strand 2, label: 3' Biotin-TEG on strand 2): binds more weakly

TTGAGAGAGCAGACCACAATTATCACCTACACGACATCATTTTATATCAA [ssDNA dN-50]
binding result [1]: binds more weakly

Reference: paper PMC7110135
